Experimental findings from PubChem BioAssay AID493014 (National Center for Advancing Translational Sciences (NCATS), 2011) are described below.

The test in a line: qHTS Assay to Find Inhibitors of Chronic Active B-Cell Receptor Signaling. To be noted: ABC-DLBCL IkBa-CBG/CBR reporter, luminescence ratio (green luciferase fused to IkBa over red control in TMD8 lymphoma cells), 4 h. Summed up:
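Doxycycline induced both beetle luciferases in TMD8 lymphoma cells; IKK-driven degradation limits the IkappaBalpha-fused green signal, while red luminescence normalises for cell number and nonspecific effects. Compounds tested up to 46 uM, 4 hrs.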

Setting [1] is: measured here: CBR red luminescence, cell number.
Setting [2] is: measured here: IkBa-CBG green luminescence.

The list shows a part of the results. Further columns of the screen follow, without active or inactive calls. Most of these compounds were active or inconclusive in the main read-out, so they are no random draw. The note in brackets gives the kind of curve behind each potency; many fits are weak.

A word on the AC50: it is the concentration giving half of the maximal activity seen. Regarding `Clc1nccnc1-c1ccccc1`, the AC50 under setting [1] was 23.1 µM [rising, partial curve, poor fit].
The same measure, in the same setting: with `Cc1c(NC(=O)c2cccc(NC(=O)Cc3c(F)cccc3Cl)c2)c(=O)n(-c2ccccc2)n1C` the figure was 1.84 µM [rising, full curve].
On to `Cc1nc(C(F)(F)F)c(C(=O)N/N=C(\N)c2ccccn2)s1`, for which the concentration at half-maximal activity (AC50) under setting [1] is 10 µM [falling, partial curve].
For the molecule `CSc1ncc(Cl)c(C(=O)Nc2cccc(Cl)c2)n1`, under setting [1], the AC50 is 35.5 µM [falling, single point].
For `C/C(=N\NC(=S)NC(C)C)c1cccc([N+](=O)[O-])c1`, the AC50 under setting [1] is 20.6 µM [rising, partial curve] and the AC50 under setting [2] was 23.1 µM [falling, single point].
In the case of `C=C1C(=O)O[C@@H]2[C@H]1[C@@H](OC(=O)/C(C)=C/C)C/C(C)=C\C(=O)/C=C(\C)[C@@H]2O`, the concentration at half-maximal activity (AC50) under setting [1] was 0.891 µM [falling, full curve, poor fit].
Still for that read-out and setting: for `Cc1nn(-c2cccc(C(F)(F)F)c2)c(Cl)c1/C=N/n1cnnc1` the value was 35.5 µM [rising, single point]; for `CC(=O)c1c(C)n(CCc2ccc(Cl)cc2)c2ccc(O)cc12`, 12.6 µM [rising, partial curve, poor fit]; for `CCOc1ccc(/C=N/n2nnnc2N)cc1O`, 3.98 µM [falling, single point].
Consider `Cc1ccc(-n2c(C)cc(C(=O)OCC(=O)N(CC(C)C)C3CCS(=O)(=O)C3)c2C)cc1` (stereo unspecified), for which the AC50 under setting [1] is 2.51 µM [falling, full curve].
With `COc1cc(C(C)=O)ccc1OCC(=O)Nc1ccc(Cl)c(S(=O)(=O)N2CCOCC2)c1`, the half-maximal activity concentration (AC50) under setting [1] was 32.6 µM [falling, partial curve, poor fit].
As to `CCOC(=O)c1[nH]cnc1C(=O)N1CCN(C(=O)OC(C)(C)C)CC1`, under setting [1], the half-maximal activity concentration (AC50) is 0.146 µM [rising, full curve, poor fit].
Same read-out and setting: for `Cc1ccccc1C(=O)N1CCN(c2ccc(NC(=O)c3ccco3)cc2Cl)CC1` the value was 2.06 µM [falling, partial curve, poor fit]; for `CC(=O)N1CC(=O)N(c2ccccc2)C1=O`, 35.5 µM [rising, single point]; for `CCOC(=O)C1=NNC2(CC(=O)N(c3cccc(C)c3)C2=O)C1` (stereo unspecified), 35.5 µM [rising, single point].
Turning to `Cn1c(=O)c2c(nc(Br)n2C/C=N/NC(N)=S)n(C)c1=O`, the half-maximal activity concentration (AC50) is 20 µM [falling, single point] under setting [1] and 35.5 µM [falling, single point] under setting [2].
As to `N#Cc1ccc(C(=O)Nc2nc3ccccc3[nH]2)cc1`, the AC50 under setting [1] is 2.24 µM [falling, full curve].
On the same count and under the same terms, for `CC(C)N(C(=O)[C@H]1C[C@H](CC(=O)NCCc2ccccn2)C(=O)N2CCc3c([nH]c4cc(-c5ccco5)ccc34)[C@]12C)C(C)C` the value was 32.6 µM [falling, single point]; for `COc1cc(/C=C2\SC(=S)N(CCC(=O)Nc3ccccn3)C2=O)cc(OC)c1OC`, 8.91 µM [falling, partial curve].
Still for that read-out and setting: for `Cc1ccc(CC(=O)Nc2cccc(C)n2)cc1` the value was 1.46 µM [rising, partial curve, poor fit]; for `CCOC(=O)C1=C(N)Oc2c(oc(CO)cc2=O)C1c1c(F)cccc1Cl` (stereo unspecified), 0.146 µM [falling, single point].
As for `Cc1cccc(N2CCN(C(=O)CSc3ccsc3[N+](=O)[O-])CC2C)c1` (stereo unspecified), under setting [1], the AC50 was 14.6 µM [falling, partial curve, poor fit].
On to `Cc1ccc(S(=O)(=O)N(C)CC(=O)NNC(=O)CCC(=O)c2ccc(F)cc2)cc1`, for which, under setting [1], the concentration at half-maximal activity (AC50) is 29.1 µM [rising, partial curve, poor fit].
The same measure, in the same setting: for `c1ccc(CN2CN=C(Nc3nc4ccccc4s3)NC2)cc1` the value was 23.1 µM [rising, single point]; for `CN(C(=O)c1ccc(NC(=O)Cc2cccc(NC(=O)C3CCN(C(=O)C4CC4)CC3)c2)cc1)C1CCCC1`, 13 µM [rising, partial curve].
On the same count and under the same terms, for `C=CCc1cccc2cc(-c3nc4ccc(C)cc4[nH]3)c(=O)oc12` the value was 0.251 µM [falling, full curve, poor fit]; for `C#CCOCCOCCOCCNc1nc(N2CCN(C(=O)CCCCCCCCCCNC(=O)[C@@H](CCSC)n3cc(CCO)nn3)CC2)nc(N2CCN(C(=O)CCCCCCCCCCNC(=O)[C@H](CCCN=C(N)N)n3cc(C[C@@H](C)CC)nn3)CC2)n1`, 2.31 µM [rising, full curve]; for `COc1cc(C(=O)Nc2nc3ccccc3[nH]2)ccc1OC(F)F`, 7.08 µM [falling, partial curve].
Still for that read-out and setting: for `CC1(C)CC(=O)CC(=O)/C1=N\Nc1c(Cl)cc(Cl)cc1Cl` the value was 0.92 µM [rising, full curve]; for `CCOC(=O)CNC(=O)Cn1c(C)cc2ccccc2c1=O`, 3.16 µM [rising, full curve, poor fit].
As for `Cc1cc(C)n(-c2nc(C)c(C)c(=O)n2CC(=O)Nc2ccc([N+](=O)[O-])cc2)n1`, under setting [1], the AC50 is 7.94 µM [rising, partial curve, poor fit].
On the same count and under the same terms, for `CN(C)CCCNC(=S)NCC(c1ccc(Cl)cc1Cl)c1c[nH]c2ccccc12` (stereo unspecified) the value was 12.6 µM [falling, single point]; for `Cn1nc(CC(=O)NCc2ccc(C(F)(F)F)cc2)c2ccccc2c1=O`, 29.1 µM [rising, single point]; for `Cc1ccc(C(C)C)c(OCc2ccc(C(=O)N/N=C/c3ccc(O)cc3O)cc2)c1`, 2.31 µM [falling, full curve].
Consider `Cc1ccc(-n2cc(-c3ccccc3)c3c(=O)[nH]cnc32)cc1`, for which the half-maximal activity concentration (AC50) under setting [1] is 23.1 µM [falling, single point].
Still for that read-out and setting: for `Cc1ccc2c(c1)c1c(n2CC2COC(C)(C)O2)C(=O)CCC1` (stereo unspecified) the value was 0.891 µM [rising, full curve, poor fit]; for `NC(=O)C1CCCN(C(=O)c2ccc3nc(Cc4cccc(Cl)c4)oc3c2)C1` (stereo unspecified), 0.316 µM [falling, full curve, poor fit].
Still for that read-out and setting: with `CCc1cc(=O)[nH]c(SCc2cccc3ccccc23)n1` the figure was 14.1 µM [falling, partial curve, poor fit]; with `O=C(NNC(=O)c1cc(Br)c(Br)s1)c1ccncc1`, 16.4 µM [falling, partial curve].
On to `CC(=O)OC[C@H]1O[C@@H](Sc2cccc3cccnc23)[C@H](OC(C)=O)[C@@H](OC(C)=O)[C@H]1OC(C)=O`, for which the concentration at half-maximal activity (AC50) runs as follows: under setting [1], 23.1 µM [rising, partial curve, poor fit]; under setting [2], 18.4 µM [falling, single point].
As for `Brc1ccc(N/N=C(/N=Nc2nn[nH]n2)c2ccccc2)cc1`, the AC50 under setting [1] was 0.447 µM [rising, full curve, poor fit].
Still for that read-out and setting: with `CSc1cccc(NC(=O)c2cccc3cccnc23)c1` the figure was 5.01 µM [rising, partial curve, poor fit]; with `COc1ccc(NC(=O)c2cc3ccccc3o2)c(OC)c1`, 7.08 µM [falling, partial curve, poor fit]; with `Cc1ccc(NS(=O)(=O)c2ccc(NC(=O)C3CC3)cc2)c(C)c1`, 15.8 µM [falling, single point].
As for `Cn1ccnc1SCC(=O)Nc1cccc(O)c1`, the AC50 under setting [1] is 25.9 µM [rising, single point].
For `CCN(CCO)C(=S)Nc1cc(C(=O)OC)ccc1C(=O)OC`, the AC50 under setting [1] was 14.6 µM [rising, partial curve, poor fit].
For `Cc1ccc(C2(C)NC(=O)N(CC(=O)NNC(=O)c3ccccc3F)C2=O)cc1` (stereo unspecified), the concentration at half-maximal activity (AC50) under setting [1] is 6.51 µM [rising, single point].
With `CC/C(=C\c1oc2cc3ccccc3cc2[n+]1CC)Nc1ccccc1`, the AC50 is 22.4 µM [falling, single point] under setting [1] and 25.1 µM [rising, partial curve, poor fit] under setting [2].
Take `O=C(N/N=C/c1ccc(F)cc1)c1ccc(Br)cc1`: under setting [1], the AC50 is 35.5 µM [falling, single point].
On the same count and under the same terms, for `CCC(=O)c1ccc(N2CCCC2)c(F)c1` the value was 29.1 µM [rising, single point]; for `COc1cc(Cl)c(C)cc1NC(=O)CC1CCCC1`, 3.16 µM [rising, full curve, poor fit]; for `COc1cccc(/C=C/C(=O)OCC(=O)Nc2nnc(-c3ccccc3)o2)c1`, 8.2 µM [rising, partial curve].
With `CCOC(=O)c1sc(NC(=O)CN2C(=O)NC3(CC(C)CC(C)(C)C3)C2=O)cc1C` (stereo unspecified), under setting [1], the half-maximal activity concentration (AC50) is 2.31 µM [falling, full curve].
The same measure, in the same setting: with `CN1CCN(c2ccc(Nc3ccnc4cc(Cl)ccc34)cc2)CC1` the figure was 11.2 µM [falling, single point].
For `CCc1cc(SC#N)cc(CC)c1NC(=O)CCl`, the half-maximal activity concentration (AC50) was 29.1 µM [falling, single point] under setting [1] and 4.11 µM [falling, single point] under setting [2].
Take `C/C(=N/NC(=O)c1cc(C)[nH]n1)c1ccncc1`: under setting [1], the concentration at half-maximal activity (AC50) is 35.5 µM [falling, single point].
Still for that read-out and setting: for `COc1ccc(CNC(=O)COC(=O)CN2C(=O)C3CC=CCC3C2=O)cc1` (stereo unspecified) the value was 29.1 µM [rising, single point]; for `COc1ccc(NS(=O)(=O)c2ccc3nc(COc4cccc5ccccc45)[nH]c3c2)cc1`, 29.1 µM [falling, single point]; for `CNC(=S)N/N=C/c1cc(Br)cc(Br)c1O`, 0.82 µM [falling, full curve, poor fit].
Same read-out and setting: for `CCOC(=O)C1CCN(C(=O)Cc2cccs2)CC1` the value was 3.66 µM [falling, single point]; for `CCOc1ccc(NC(=O)Nc2cc(C)ccc2OC)cc1`, 16.4 µM [rising, partial curve, poor fit].
